These are yes or no findings as the source states them, for the method shown. In cells and extracts the contact can be indirect. Some results given as binding are weak or reduced against the parent protein; the word gives no strength.
Molecular target: regulatory-associated protein of mTOR (raptor) (mouse (endogenous in 3T3-L1)) (UniProt Q8K4Q0)
Experiment: co-IP; immunoprecipitates against raptor from 3T3-L1 cell lysates, western blotting for DEPTOR; cells undifferentiated or differentiated, in the absence or presence of 300 uM C8-PA

By UniProt entry, the sequences of proteins in these tests, tags left out.
UniProt Q8K4Q0: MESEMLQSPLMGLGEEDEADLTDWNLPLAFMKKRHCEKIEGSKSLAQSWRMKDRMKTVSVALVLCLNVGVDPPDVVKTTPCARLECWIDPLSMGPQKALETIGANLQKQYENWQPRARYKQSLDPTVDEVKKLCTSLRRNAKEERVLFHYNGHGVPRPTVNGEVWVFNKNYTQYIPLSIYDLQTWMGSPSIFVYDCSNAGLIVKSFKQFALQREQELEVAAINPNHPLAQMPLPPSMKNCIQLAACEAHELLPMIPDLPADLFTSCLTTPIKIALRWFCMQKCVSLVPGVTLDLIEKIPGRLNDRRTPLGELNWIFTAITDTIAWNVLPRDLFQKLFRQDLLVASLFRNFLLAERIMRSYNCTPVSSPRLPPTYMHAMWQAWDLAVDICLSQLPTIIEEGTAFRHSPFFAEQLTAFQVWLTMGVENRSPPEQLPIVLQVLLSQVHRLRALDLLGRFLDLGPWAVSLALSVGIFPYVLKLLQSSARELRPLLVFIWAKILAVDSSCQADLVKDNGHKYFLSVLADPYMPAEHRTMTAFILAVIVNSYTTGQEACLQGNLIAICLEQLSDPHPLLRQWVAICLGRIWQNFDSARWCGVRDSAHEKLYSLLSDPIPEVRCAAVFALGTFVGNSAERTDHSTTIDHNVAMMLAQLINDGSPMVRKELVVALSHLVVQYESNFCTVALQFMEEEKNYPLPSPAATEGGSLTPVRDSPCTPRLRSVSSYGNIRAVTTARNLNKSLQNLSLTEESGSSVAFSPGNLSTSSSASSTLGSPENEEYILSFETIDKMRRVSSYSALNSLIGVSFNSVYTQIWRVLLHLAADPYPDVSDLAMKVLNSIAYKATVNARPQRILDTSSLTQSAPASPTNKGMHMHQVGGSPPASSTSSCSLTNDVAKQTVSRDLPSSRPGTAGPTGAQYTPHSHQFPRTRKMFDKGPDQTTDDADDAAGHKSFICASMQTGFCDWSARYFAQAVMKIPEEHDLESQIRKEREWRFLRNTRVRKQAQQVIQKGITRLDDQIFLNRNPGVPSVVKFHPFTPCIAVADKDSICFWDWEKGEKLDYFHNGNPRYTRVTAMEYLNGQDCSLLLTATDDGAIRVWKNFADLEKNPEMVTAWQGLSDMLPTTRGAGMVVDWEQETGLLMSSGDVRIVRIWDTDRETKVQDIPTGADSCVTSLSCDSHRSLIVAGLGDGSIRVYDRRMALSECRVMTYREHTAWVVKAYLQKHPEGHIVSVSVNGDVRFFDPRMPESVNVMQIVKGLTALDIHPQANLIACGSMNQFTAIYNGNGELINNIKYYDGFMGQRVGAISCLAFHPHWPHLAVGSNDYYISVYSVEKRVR
UniProt Q570Y9: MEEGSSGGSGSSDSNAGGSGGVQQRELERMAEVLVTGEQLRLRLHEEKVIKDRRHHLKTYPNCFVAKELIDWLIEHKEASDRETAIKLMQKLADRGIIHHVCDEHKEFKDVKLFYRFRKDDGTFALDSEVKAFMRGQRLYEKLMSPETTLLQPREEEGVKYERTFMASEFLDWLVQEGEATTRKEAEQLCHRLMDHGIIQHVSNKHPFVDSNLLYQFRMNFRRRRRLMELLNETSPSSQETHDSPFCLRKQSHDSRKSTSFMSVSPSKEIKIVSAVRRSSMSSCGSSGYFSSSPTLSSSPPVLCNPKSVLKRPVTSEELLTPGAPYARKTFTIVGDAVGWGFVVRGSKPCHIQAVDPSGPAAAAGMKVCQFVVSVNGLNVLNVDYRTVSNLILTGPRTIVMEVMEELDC

- binding: binds
Substance: DEP domain-containing mTOR-interacting protein (DEPTOR) (from UniProt Q570Y9 1-409)

Reference: PMC5181839
